According to patent US7759486B2, “2,4,5-Trisubstituted pyrimidine compounds” (GlaxoSmithKline LLC, priority 2000, dated 2010):
pIC50: −log10 of the molar value. Some entries share one result that the patent states for a list of compounds.

Amino acid sequences for entries named in this document (tags omitted).
UniProt Q16539, whole entry: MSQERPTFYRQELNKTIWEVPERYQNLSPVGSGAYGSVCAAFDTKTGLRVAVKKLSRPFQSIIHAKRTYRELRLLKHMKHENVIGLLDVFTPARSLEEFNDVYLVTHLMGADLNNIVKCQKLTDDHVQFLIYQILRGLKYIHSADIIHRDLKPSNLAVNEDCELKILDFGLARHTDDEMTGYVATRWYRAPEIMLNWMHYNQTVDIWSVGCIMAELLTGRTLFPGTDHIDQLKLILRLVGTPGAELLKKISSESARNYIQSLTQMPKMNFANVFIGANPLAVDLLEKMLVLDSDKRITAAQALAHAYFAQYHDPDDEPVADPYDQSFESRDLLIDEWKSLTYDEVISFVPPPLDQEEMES

The compounds below were run against T1, CSBP/p38 (Homo sapiens, UniProt Q16539) (assay: CSBP/p38 Kinase Assay (32P transfer from ATP to EGFR-derived T669 peptide)). Conditions: yeast-expressed, activated and purified p38, 0.17 mM ATP, 25 min at 37° C., read-out: IC50, positive inhibitory activity in this binding assay.
T1 construct: made in house; host or cells: yeast
Type: biochemical
Experimental: Assay: Test compound concentrations were prepared at 10× concentrations and LPS prepared at […] (final conc. of 50 ng/ml LPS) and added in 50 uL volumes to 1.5 mL eppendorf tubes. Heparinized human whole blood was obtained from healthy volunteers and was dispensed into eppendorf tubes containing compounds and LPS in 0.4 mL volumes and the tubes incubated at 37 C. Following a 4 hour incubation, the tubes were centrifuged at 5000 rpm for 5 minutes in a TOMY microfuge, plasma was withdrawn and frozen at −80 C. Cytokine measurement: IL-1 and/or TNF were quantified using a standardized ELISA technology. An in-house ELISA kit was used to detect human IL-1 and TNF. Concentrations of IL-1 or TNF were determined from standard curves of the appropriate cytokine and IC50 values for test compound (concentration that inhibited 50% of LPS-stimulated cytokine production) were calculated by linear regression analysis. CSBP/p38 Kinase Assay:
This assay measures the CSBP/p38-catalyzed transfer of ^32P from […] to threonine residue in an epidermal growth factor receptor (EGFR)-derived peptide (T669) with the following sequence: […] (SEQ ID No. 1) (residues 661-681). (See Gallagher et al., “Regulation of Stress Induced Cytokine Production by Pyridinyl Imidazoles: Inhibition of CSBP Kinase”, BioOrganic & Medicinal Chemistry, 1997, 5, 49-64).
Reactions were carried in round bottom 96 well plate (from Corning) in a […]. Reactions contained (in final concentration): 25 mM Hepes, pH 7.5; 8 mM MgCl2; 0.17 mM ATP (the Km[ATP] of p38 (see Lee et al., Nature 300, n72 pg. 639-746 (December 1994)); 2.5 uCi of [g-32P]ATP; 0.2 mM sodium orthovanadate; 1 mM DTT; 0.1% BSA; 10% glycerol; 0.67 mM T669 peptide; and 2-4 mM of yeast-expressed, activated and purified p38. Reactions were initiated by the addition of [gamma-32P]Mg/ATP, and incubated for 25 min. at 37° C. Inhibitors (dissolved in DMSO) were incubated with the reaction mixture on ice for 30 minutes prior to adding the 32P-ATP. Final DMSO concentration was 0.16%. Reactions were terminated by adding 10 ul of 0.3 M phosphoric acid, and phosphorylated peptide was isolated from the reactions by capturing it on p81 phosphocellulose filters. Filters were washed with 75 mM phosphoric acids, and incorporated 32P was quantified using beta scintillation counter. Under these conditions, the specific activity of p38 was 400-450 pmol/pmol enzyme, and the activity was linear for up to 2 hours of incubation. The kinase activity values were obtained after subtracting values generated in the absence of substrate which were 10-15% of total values.

pIC50, > 5.00:
Cc1cc(F)ccc1-c1nc(N[C@H]2CCCC[C@@H]2O)nc2c1ccc(=O)n2-c1c(F)cccc1F (racemic) [Example 208]
Cc1cc(F)ccc1-c1nc(N[C@H]2CCC[C@@H]2O)nc2c1ccc(=O)n2-c1c(F)cccc1F (racemic) [Example 213, 2-[8-(2,6-Difluoro-phenyl)-4-(4-fluoro-2-methyl-phenyl)-2-(1SR,2SR)-2-hydroxy-cyclopentylamino)-8H-pyrido[2,3-d]pyrimidin-7-one]
Cc1cc(F)ccc1-c1nc(N[C@@H]2CCC[C@@H]2C(N)=O)nc2c1ccc(=O)n2-c1c(F)cccc1F (racemic) [Example 237, (1SR,2RS)-2-[8-(2,6-Difluoro-phenyl)-4-(4-fluoro-2-methyl-phenyl)-7-oxo-7,8-dihydro-pyrido[2,3-d]pyrimidin-2-ylamino]-cyclopentanecarboxylic acid amide]
CCN(CC)CCNc1nc(-c2ccc(F)cc2C)c2c(n1)N(c1c(F)cccc1F)C(=O)CC2 [Example 114, 2-(2-Diethylamino-ethylamino)-8-(2,6-difluoro-phenyl)-4-(4-fluoro-2-methyl-phenyl)-5,8-dihydro-6H-pyrido[2,3-d]pyrimidin-7-one]
Cc1cc(F)ccc1-c1nc(N[C@H](C)CO)nc2c1ccc(=O)n2-c1ccccc1F [Example 142, (R)-4-(4-fluoro-2-methylphenyl)-8-(2-fluorophenyl)-2-[(1-hydroxyprop-2-yl)amino]-8H-pyrido[2,3-d]pyrimidin-7-one]
Cc1cc(F)ccc1-c1nc(N[C@H]2CC[C@H](O)CC2)nc2c1ccc(=O)n2-c1ccccc1F [Example 151, trans-2-(4-Hydroxycyclohexylamino)-4-(4-fluoro-2-methylphenyl)-8-(2-fluorophenyl)-8H-pyrido[2,3-d]pyrimidin-7-one]
CCOc1nc(-c2ccc(F)cc2C)c2ccc(=O)n(-c3ccccc3F)c2n1 [Example 156, 2-Ethoxy-4-(4-fluoro-2-methylphenyl)-8-(2-fluorophenyl)-8H-pyrido[2,3-d]pyrimidin-7-one]
Cc1cc(F)ccc1-c1nc(NCC(C)(C)O)nc2c1ccc(=O)n2-c1ccccc1F [Example 176]
